This passage reports cell number change and AC50 results from PubChem BioAssay AID2685 (National Center for Advancing Translational Sciences (NCATS), 2010).

Each structure is given as a SMILES string. This is one part of the list. These are further read-outs of the screen, such as a control signal, another cell line or another target. No call is given for them. Compounds called inactive in the main read-out are mostly missing here. Words in brackets tell the shape of the fitted curve; partial curves, single points and poor fits give uncertain potencies.

One may read the AC50 as the concentration giving half of the maximal activity seen. Low readings indicate greater potency, high ones weaker potency.

A short description of this assay: qHTS Assay for Lipid Storage Modulators in Drosophila S3 Cells.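 As to cell number change: cells counted by Cell Tracker Red CMTPX staining in the red channel.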 Particulars: BODIPY lipid droplet fluorescence, 18-24 h; for cell number change: measured here: cell count max response, cells fed with added oleic acid. The gist of the method: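 Laser-scanning cytometry quantifies lipid droplet accumulation (500–530 nm total intensity; droplet/cell object ratio) in oleic acid-fed (400 uM added) Drosophila S3 cells treated with a concentration series. 20 uM Triacsin C defined 100% inhibition.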

The mark [1] stands for this setting: measured here: cell number channel AC50, cells fed with added oleic acid.
[2] abbreviates: measured here: lipid fluorescence (Fed channel) AC50, cells fed with added oleic acid.

`Cc1ccc(CNC(=O)Cn2c(=O)c3sccc3n(Cc3ccc([N+](=O)[O-])cc3)c2=O)cc1`: the cell number change was found to be 0.151%. In the case of `O=c1c2ccccc2nc(SCc2cccc(F)c2)n1Cc1ccco1`, the cell number change worked out at 115%. Besides, the AC50 under setting [1] was 11.6 µM [rising, partial curve]. Also, the AC50 under setting [2] was 2.06 µM [rising, partial curve]. Consider `Cc1ccc(Cc2c(C)nc3nc(SCC(=O)NCCCN4CCCCCC4)nn3c2C)cc1`, for which the cell number change amounted to 72.4%. Also, the AC50 under setting [1] was 29.1 µM [rising, single point]. Also, under setting [2], the concentration at half-maximal activity (AC50) was 29.1 µM [rising, single point].

`O=S(=O)(c1ccc(Oc2ccc(Br)cc2F)nc1)N1CCCCC1`: the cell number change is -23%. Also, the AC50 under setting [2] was 0.651 µM [rising, full curve, poor fit]. On to `CCOC(=O)c1ncn2c1[C@@H]1CCNC1C(=O)c1cc(OC)ccc1-2` (some centres undefined), for which the cell number change came out at 17.2%. Also, the AC50 under setting [2] is 5.8 µM [rising, full curve, poor fit].

Take `COc1ccc(-c2noc(CCCC(=O)Nc3ccc(C(N)=O)cc3)n2)cc1`: the cell number change was -14.6%. Also, the AC50 under setting [2] is 0.00517 µM [falling, full curve, poor fit].

As to `CC(C)(C)SCCNC(=O)/C=C/c1cccc([N+](=O)[O-])c1`, the cell number change was -16.7%. For the same molecule, the concentration at half-maximal activity (AC50) under setting [1] was 0.651 µM [rising, partial curve, poor fit]. In addition, the AC50 under setting [2] is 14.6 µM [rising, partial curve]. Consider `COc1ccc(Cn2cccc(NC(=O)Nc3ccc(C#N)cc3)c2=O)cc1`, for which the cell number change is -3.37%. Moreover, the AC50 under setting [2] is 0.58 µM [falling, single point]. On to `COc1ccc(NC(=O)CN2C(=O)NC(c3ccccc3)(c3ccccc3)C2=O)cc1OC`, for which the cell number change was -26.3%.

As for `COc1ccccc1CNC(=S)NCc1ccc(Cl)cc1`, the cell number change is -23.8%. Under setting [2], the AC50 is 29.1 µM [falling, partial curve, poor fit]. As to `COc1cccc(N(Cc2nnc3n2CCCCC3)C(=O)Nc2ccccc2)c1`, the cell number change was -1.1%. As for `CCN(CC)S(=O)(=O)c1ccc(OC)c(NC(=O)C2CC(=O)N(c3ccc(C)cc3)C2)c1` (centres undefined), the cell number change turned out to be 114%. For the same molecule, under setting [1], the AC50 was 29.1 µM [rising, single point]. Regarding `COc1ccc(CNc2ccc(-c3ccccc3OC)nn2)cc1`, the AC50 under setting [1] was 2.06 µM [rising, partial curve, poor fit]. Turning to `CC(C)(O)C#Cc1ccc(CN2CCCC(CNC(=O)c3ccco3)C2)cc1` (centres undefined), the cell number change was -21.4%. As to `COc1cc(/C=N\Nc2ccc([N+](=O)[O-])cc2)ccc1OCC(=O)Nc1ccc(C)c(C)c1`, the cell number change is 3.74%. Moreover, the AC50 under setting [2] is 16.4 µM [falling, single point].

On to `COc1ccccc1C(=O)NC(CCSC)C(=O)OC(C)C(N)=O` (centres undefined), for which the cell number change is -2.44%.

Turning to `O=C(NCc1ccc(F)cc1)C(c1ccccc1)N(C(=O)c1csnn1)C1CCCC1` (centres undefined), the cell number change amounted to 22.1%. Also, under setting [1], the AC50 is 6.51 µM [rising, single point].

For the molecule `CC1CCN(C(=O)CN(C2CCCCC2)S(C)(=O)=O)CC1`, the cell number change is -35.6%. For the same molecule, the AC50 under setting [2] is 29.1 µM [falling, single point]. For the molecule `CCNC(=S)N(Cc1ccccc1)Cc1nc2ccccc2c(=O)[nH]1`, the cell number change was found to be 8.25%. Under setting [1], the half-maximal activity concentration (AC50) was 6.51 µM [rising, single point]. For the molecule `Cc1cc(/C=N/n2cnnc2)c(C)n1-c1ccc(Cl)cc1`, the cell number change is -12.6%. Besides, under setting [1], the AC50 was 4.61 µM [rising, single point]. Consider `Cc1ccccc1N=C1NC(=O)CS1`, for which the cell number change was -1.7%. The half-maximal activity concentration (AC50) under setting [2] was 2.31 µM [falling, partial curve, poor fit]. In the case of `N/C(=N\OC(=O)c1cccc(Br)c1)c1ccc([N+](=O)[O-])cc1`, the cell number change was -0.263%. Under setting [2], the AC50 is 3.26 µM [falling, full curve].

Take `Cc1ccc(/C=N/Nc2ccc(F)cc2)s1`: the cell number change was -34.2%. Moreover, under setting [1], the AC50 is 13 µM [falling, single point]. With `CC(C)c1ccc(Nc2nnns2)cc1`, the cell number change is 8.09%. Also, under setting [2], the AC50 is 6.51 µM [falling, single point].

For `CCN(CC)CCOC(=O)C(Cc1cccc2ccccc12)CC1CCCO1` (centres undefined), the cell number change is -18.1%. The concentration at half-maximal activity (AC50) under setting [2] is 5.17 µM [falling, full curve, poor fit]. For `CCN1C(=O)[C@H]2[C@@H](c3ccc(-c4ccc(OC)cc4)cc3)N3CCCC[C@@]3(C(=O)OC)[C@H]2C1=O`, the cell number change was -1.65%. Also, the AC50 under setting [1] was 0.326 µM [rising, partial curve, poor fit]. Regarding `Cc1ccc(SC(=O)COc2ccccc2C)cc1`, the cell number change was determined as 11.5%. Further, under setting [1], the AC50 was 0.13 µM [falling, full curve, poor fit]. Moreover, the AC50 under setting [2] is 0.651 µM [falling, single point].

Turning to `CN(c1ccccc1)C(c1ccc(F)cc1)c1nnnn1C1CCCC1` (centres undefined), under setting [2], the half-maximal activity concentration (AC50) is 6.51 µM [rising, single point].

Consider `CCOC(=O)N1CCN(S(=O)(=O)c2cccc3cccnc23)CC1`, for which the cell number change came to 26.8%. The half-maximal activity concentration (AC50) under setting [1] was 1.64 µM [rising, full curve, poor fit]. `COc1cccc(CNc2ccc3[nH]c(=O)[nH]c3c2)c1OCc1ccccc1Cl`: the cell number change was -33.8%. Besides, the AC50 under setting [1] is 8.2 µM [falling, partial curve, poor fit]. `N#Cc1ccc(OCC(=O)OCC(=O)Nc2ccc(N3CCOCC3)cc2)cc1`: the cell number change was -40.8%. Further, under setting [1], the AC50 was 2.59 µM [falling, full curve]. Moreover, under setting [2], the AC50 was 18.4 µM [falling, single point]. Regarding `CCn1nc(C)c(/C=N/NC(=O)Cn2nccc2C)c1C`, the cell number change was -0.804%. On to `C=CCNC(=O)C1CC2Cn3c(nc4cc(Cl)c(Cl)cc43)C2N1C` (centres undefined), for which the cell number change was -11.1%. In addition, the half-maximal activity concentration (AC50) under setting [2] was 0.13 µM [rising, full curve, poor fit]. With `CCCOc1ccc(C(=O)NC(=S)N2CCN(c3cc4c(cc3F)c(=O)c(C(=O)O)cn4CC)CC2)cc1`, the cell number change stood at 164%. In addition, the AC50 under setting [1] was 14.6 µM [rising, partial curve]. Regarding `COC(=O)C(Cc1ccccc1)NCC(=O)Nc1cccc(Cl)c1C` (centres undefined), the cell number change is 24.6%. Further, under setting [2], the AC50 is 5.8 µM [rising, partial curve]. `CC(C)n1cnc2c(NCc3ccccc3)cc(Cc3ccc(F)cc3)cc21`: the cell number change was -26%. The AC50 under setting [1] was 0.206 µM [falling, full curve, poor fit]. The concentration at half-maximal activity (AC50) under setting [2] was 0.259 µM [falling, partial curve, poor fit]. Take `C1=CN2CCC1C(c1ccccc1)C2` (centres undefined): the cell number change is -15.9%. In addition, the AC50 under setting [2] is 3.66 µM [falling, full curve, poor fit]. As to `COC(=O)CN(n1cnnc1)S(=O)(=O)c1ccccc1`, the cell number change was found to be 2.74%. Moreover, the AC50 under setting [1] is 5.8 µM [falling, single point].
